Substitutions are numbered along the chain they refer to. No constants are given. Whether binding was seen depends on the method and setting. Some entries that bind do so weakly or less than the wild type.
Columns and labels:
Assay in all cases: SPR
[1] = target: T1, rHC1 ΔvWFa mutant (lacking residues 288-478) (human) (UniProt P19827)
T1 sequence: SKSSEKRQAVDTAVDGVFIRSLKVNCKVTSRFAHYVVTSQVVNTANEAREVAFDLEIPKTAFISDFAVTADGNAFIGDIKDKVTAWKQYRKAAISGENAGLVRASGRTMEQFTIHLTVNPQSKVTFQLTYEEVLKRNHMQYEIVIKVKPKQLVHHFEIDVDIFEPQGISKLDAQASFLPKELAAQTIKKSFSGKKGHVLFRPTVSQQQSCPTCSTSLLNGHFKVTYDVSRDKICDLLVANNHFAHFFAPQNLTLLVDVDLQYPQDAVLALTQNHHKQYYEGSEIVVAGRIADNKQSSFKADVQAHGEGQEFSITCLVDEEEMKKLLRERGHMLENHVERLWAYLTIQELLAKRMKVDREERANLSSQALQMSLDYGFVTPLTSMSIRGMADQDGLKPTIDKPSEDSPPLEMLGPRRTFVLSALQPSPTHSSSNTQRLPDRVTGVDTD

Sequences of proteins named here, by UniProt entry; tags and fusion partners are left off. Residues count along the entry.
UniProt P04004, residues 20-478: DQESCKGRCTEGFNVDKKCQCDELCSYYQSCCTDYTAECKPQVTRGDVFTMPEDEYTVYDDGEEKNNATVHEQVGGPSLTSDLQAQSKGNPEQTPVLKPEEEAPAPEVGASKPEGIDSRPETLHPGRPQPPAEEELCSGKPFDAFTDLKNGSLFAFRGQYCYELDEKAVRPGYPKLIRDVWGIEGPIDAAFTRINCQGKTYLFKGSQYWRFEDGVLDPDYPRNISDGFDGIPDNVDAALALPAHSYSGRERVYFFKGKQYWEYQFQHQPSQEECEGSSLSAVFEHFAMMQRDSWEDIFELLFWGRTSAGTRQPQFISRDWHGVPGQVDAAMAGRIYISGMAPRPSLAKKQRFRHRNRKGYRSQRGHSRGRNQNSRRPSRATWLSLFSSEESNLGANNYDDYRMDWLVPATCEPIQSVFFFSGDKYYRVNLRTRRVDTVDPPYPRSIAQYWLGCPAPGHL

[2] = target: T2, rHC1 D298A (MIDAS site mutant) (human) (UniProt P19827)
T2 sequence: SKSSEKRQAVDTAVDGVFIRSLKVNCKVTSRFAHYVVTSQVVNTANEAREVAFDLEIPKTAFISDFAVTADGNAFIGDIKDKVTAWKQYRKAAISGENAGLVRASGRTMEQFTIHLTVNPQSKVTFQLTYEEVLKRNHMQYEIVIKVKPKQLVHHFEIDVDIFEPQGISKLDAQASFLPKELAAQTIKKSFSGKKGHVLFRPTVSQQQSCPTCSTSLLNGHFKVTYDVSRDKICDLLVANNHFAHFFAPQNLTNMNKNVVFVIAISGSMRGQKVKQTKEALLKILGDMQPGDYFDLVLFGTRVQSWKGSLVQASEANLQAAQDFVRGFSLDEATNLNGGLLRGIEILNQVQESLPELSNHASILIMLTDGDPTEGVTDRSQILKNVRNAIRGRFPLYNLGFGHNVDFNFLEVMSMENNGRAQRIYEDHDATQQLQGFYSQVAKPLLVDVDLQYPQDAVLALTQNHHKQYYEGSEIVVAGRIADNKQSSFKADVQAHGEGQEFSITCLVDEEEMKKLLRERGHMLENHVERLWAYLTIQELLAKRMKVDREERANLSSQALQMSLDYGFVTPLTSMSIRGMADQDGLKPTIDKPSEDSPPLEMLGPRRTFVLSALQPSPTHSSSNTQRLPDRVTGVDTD

[3] = target: T3, recombinant HC1 (rHC1), wild type; heavy chain 1 of inter-α-inhibitor (human) (UniProt P19827)
T3 sequence: T2 sequence with A264D

Measured: binding

vitronectin (from UniProt P04004 20-478)
binds: all assays above
